Source: patent publication EP0049203A1, “Benzoxazolinones substituted in the 6-position by an amino-alcohol or amino-ketone chain, their preparation and their therapeutic use” (RIOM LABORATOIRES- C.E.R.M. (Société Anonyme), priority 1980, dated 1982)
At least one compound was matched to its structure with a doubt left.

Chains of the proteins cited; added tags and fusions are not shown.
UniProt Q8K4Z4, whole entry: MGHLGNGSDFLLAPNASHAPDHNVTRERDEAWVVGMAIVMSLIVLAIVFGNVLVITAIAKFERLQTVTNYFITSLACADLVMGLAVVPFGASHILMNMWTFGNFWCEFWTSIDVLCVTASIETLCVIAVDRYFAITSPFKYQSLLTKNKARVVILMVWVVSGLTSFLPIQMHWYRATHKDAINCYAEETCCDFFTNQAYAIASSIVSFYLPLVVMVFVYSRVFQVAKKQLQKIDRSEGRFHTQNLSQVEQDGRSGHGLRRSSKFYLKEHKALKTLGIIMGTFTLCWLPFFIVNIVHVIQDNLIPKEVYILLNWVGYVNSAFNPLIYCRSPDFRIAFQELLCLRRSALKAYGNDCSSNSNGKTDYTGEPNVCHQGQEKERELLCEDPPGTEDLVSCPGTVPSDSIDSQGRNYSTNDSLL

What was measured:
[1] = system: récepteurs β1 de l'oreillette gauche de cobaye; test: Antagonism of the positive inotropic effect of isoprenaline on electrically stimulated isolated left atrium; settings: β1 versus β2, in words
Source text: (§1) L'activité pharmacologique des composés de l'invention a été révélée par recherche d'une interférence avec les récepteurs adrénergiques β1, β2 et α in vitro, conformément aux protocoles expérimentaux ci-après.
Récepteurs adrénergiques β1 : on recherche l'antagonisme de l'effet inotrope positif de l'isoprénaline sur les récepteurs β1 de l'oreillette gauche de cobaye stimulée électriquement.
(§2) Les résultats sont exprimés dans le tableau I par les paramètres usuels de pharmacologie moléculaire, selon les critères utilisés par Van Rossum [Arch. Int.

[2] = biological target: T1, récepteurs adrénergiques β2 du muscle trachéal de cobaye (Cavia porcellus, UniProt Q8K4Z4); test: Antagonism of the bronchodilator effects of isoprenaline on isolated tracheal muscle; settings: result in words; guinea-pig tracheal muscle
T1 construct: du muscle trachéal de cobaye; from tissue; host or cells: guinea pig tracheal muscle
Source text: as §1
Récepteurs adrénergiques β2 : on recherche l'antagonisme des effets bronchodilatateurs de l'isoprénaline sur les récepteurs p2 du muscle trachéal de cobaye.
as §2

[3] = system: Récepteurs adrénergiques α; test: Interference with noradrenaline-induced contraction (cumulative doses) of isolated vas deferens; settings: rat vas deferens
Source text: as §1
Récepteurs adrénergiques α : on étudie l'interférence des composés de l'invention sur la contraction du vas déferens isolé du rat, provoquée par des doses cumulatives de noradrénaline.
as §2

With Cn1c(=O)oc2cc(C(=O)CN3CCC(Cc4ccccc4)CC3)ccc21 [compound 13, 2-(4-benzyl-pipéridinyl) 1-(3-méthyl 2-benzoxazolinon-6-yl) éthanone] as the molecule, how does the cardiosélectivité [1] read?
Its cardiosélectivité is “importante, voire totale”.

What about the “INTERFERENCE AVEC LES RECEPTEURS ADRENERGIQUES β2” value [2] of the same molecule?
The value was “Inactif”.

And the “Potentialisation des effets de la noradrénaline” value ([3]; α, à 10^-4 M/l)?
Its value is “* + 230 % à 10^-4 M/l”.

Which results are given for COc1ccccc1N1CCN(CC(=O)c2ccc3c(c2)oc(=O)n3C)CC1 [compound 9, 2 [4-(2-méthoxyphényl)pipérazinyl] 1-(3-méthyl 2-benzoxazolinon-6-yl) éthanone]?
cardiosélectivité [1]: importante, voire totale; INTERFERENCE AVEC LES RECEPTEURS ADRENERGIQUES β2 [2]: Agoniste partiel; INTERFERENCE AVEC LES RECEPTEURS ADRENERGIQUES α ([3]; result in words): Inactif
